According to PubChem BioAssay AID493014 (National Center for Advancing Translational Sciences (NCATS), 2011):
Some of the results follow. Shown are side measurements of this screen, not its main read-out; they come without a call. Most of these compounds were active or inconclusive in the main read-out, so they are no random draw. Potencies come from curve fits of mixed quality, noted in brackets.

Test: qHTS Assay to Find Inhibitors of Chronic Active B-Cell Receptor Signaling
Settings: ABC-DLBCL IkBa-CBG/CBR reporter, luminescence ratio (green luciferase fused to IkBa over red control in TMD8 lymphoma cells), 4 h
In short: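 TMD8 ABC-DLBCL cells carrying doxycycline-inducible green luciferase fused to IkappaBalpha plus unfused red luciferase were exposed to compounds (up to 46 uM) for 4 hrs at 37C. Activity came from the overlap-corrected green/red luminescence ratio.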

[1] = measured here: CBR red luminescence, cell number
[2] = measured here: IkBa-CBG green luminescence

SMILES	AC50 [1]	AC50 [2]
CCN(CC)C(=O)C1CCCN(C/C=C/c2ccccc2)C1 (stereo not drawn)	18.4 µM [falling, partial curve]	–
COc1ccc(CC(=O)Nc2ccc(-c3nnc(-c4ccccc4)o3)cc2)cc1OC	0.013 µM [falling, full curve]	–
CCOC(=O)C(Sc1ncc(C#N)c(N)n1)C(C)C (stereo not drawn)	2.31 µM [falling, partial curve, poor fit]	–
CCn1ccc2c(OCC(=O)Nc3ccc(C)c(Cl)c3)cccc2c1=O	11.2 µM [falling, partial curve, poor fit]	–
Cc1csc2sc(-c3ccnc(SCC(=O)NCc4ccccc4)n3)c(C)c12	17.8 µM [rising, partial curve, poor fit]	3.98 µM [falling, partial curve, poor fit]
CCc1ccc2[nH]c(=O)c(CN(Cc3ccccc3OC)Cc3nnnn3Cc3ccco3)cc2c1	32.6 µM [falling, single point]	–
COc1ccc(-n2ncc3c(NCc4cccs4)ncnc32)cc1	0.158 µM [rising, full curve, poor fit]	–
COc1ccc(C(CNC(=O)c2cccc(NC(=O)c3cccs3)c2)N2CCCC2)cc1 (stereo not drawn)	25.9 µM [falling, partial curve, poor fit]	–
COc1ccc(/C=C2\C(=O)NCC(=O)N2C)cc1	0.708 µM [rising, full curve, poor fit]	–
Cc1cc(C)cc(NC(=O)CSc2nc3c(oc4ccccc43)c(=O)n2-c2ccccc2)c1	0.231 µM [rising, full curve, poor fit]	–
CCN(CC)C(=O)c1sc2c(c1C)c(=O)n(CCc1ccccc1)c(=O)n2Cc1ccc(C)cc1	7.08 µM [falling, partial curve]	10 µM [rising, partial curve, poor fit]
CN(CCCC(=O)Nc1ccncc1)S(=O)(=O)c1ccc(Cl)cc1	1.41 µM [falling, partial curve, poor fit]	–
N#CCCN(C(=O)COC(=O)CNC(=O)c1ccc(-c2ccccc2)cc1)c1ccc(F)cc1	29.1 µM [falling, partial curve, poor fit]	–
COc1ccc(S(=O)(=O)Nc2ccccc2OC)cc1N=Nc1c(O)[nH]c(=S)[nH]c1=O	0.116 µM [rising, full curve, poor fit]	–
C/C(=N\OCC(=O)NCC(F)(F)F)c1cc2ccccc2o1	29.1 µM [rising, single point]	–
CC(=O)N(CC1CCCO1)C1(C(=O)NC2CCCC2)CCCCC1 (stereo not drawn)	1.84 µM [falling, single point]	–
COC(=O)C1=C(COc2ccc(C=O)cc2OC)NC(=O)NC1c1cc(C)ccc1C (stereo not drawn)	1.16 µM [rising, full curve, poor fit]	–
COc1ccc(NS(=O)(=O)c2cccc(NC(=O)NCCCl)c2)cc1	35.5 µM [rising, single point]	–
Brc1cccc(-c2n[nH]c(-c3ccccc3)n2)c1	7.31 µM [falling, partial curve, poor fit]	–
O=C(c1ccc(Cn2c(=S)[nH]c3cc4c(cc3c2=O)OCO4)cc1)N1CCN(c2ncccn2)CC1	7.08 µM [falling, partial curve, poor fit]	–
O=C(COC(=O)CCC1CCCC1)Nc1nc2c(F)c(F)c(F)cc2s1	7.31 µM [rising, partial curve, poor fit]	–

In the list so far, 3 contain fluorine:
SMILES	AC50 [1]	AC50 [2]
N#CCCN(C(=O)COC(=O)CNC(=O)c1ccc(-c2ccccc2)cc1)c1ccc(F)cc1	29.1 µM [falling, partial curve, poor fit]	–
C/C(=N\OCC(=O)NCC(F)(F)F)c1cc2ccccc2o1	29.1 µM [rising, single point]	–
O=C(COC(=O)CCC1CCCC1)Nc1nc2c(F)c(F)c(F)cc2s1	7.31 µM [rising, partial curve, poor fit]	–

(list continues)

SMILES	AC50 [1]	AC50 [2]
OC(CCN1CCCCC1)c1ccc(-c2ccccc2)cc1 (stereo not drawn)	8.91 µM [rising, single point]	–
CCOC(=O)c1[nH]ncc1CN1CCN(Cc2ccc(C)cc2)C(CCO)C1 (stereo not drawn)	6.31 µM [rising, single point]	–
C[C@@H](C(=O)N1CCN(c2ccccc2)CC1)N1C(=O)C2CC=CCC2C1=O (stereo partly drawn)	13 µM [rising, single point]	–
CCNC(=S)N/N=C(\C)c1ccc2c(c1)OCCO2	0.291 µM [falling, full curve, poor fit]	20.6 µM [falling, single point]
Cc1nc(CCNC(=O)CC2C(=O)NCCN2Cc2ccc(F)cc2)sc1C (stereo not drawn)	25.1 µM [rising, single point]	35.5 µM [falling, single point]
COc1ccccc1NC(=O)/C=C\c1ccco1	11.2 µM [falling, partial curve, poor fit]	–
Cc1cccc(NNC(=O)C(=O)NNc2cccc(C)c2)c1	31.6 µM [rising, single point]	–
NC(=S)N/N=C/c1ccc(-c2cc(Cl)ccc2Cl)o1	0.0651 µM [rising, full curve, poor fit]	–
CCOC(=O)c1ccc(N=c2scc(C)n2CC)cc1	3.55 µM [rising, full curve, poor fit]	–
CN(C)c1ccc(C(=O)OCc2ccc(Br)cc2)cc1	14.6 µM [rising, partial curve, poor fit]	–
CCOC(=O)c1sc(Nc2nc3c(OC)cccc3s2)nc1C	0.00731 µM [falling, full curve, poor fit]	–
COc1cc(/C=C/C(=O)NCc2ccccn2)cc(OC)c1OC	3.66 µM [rising, partial curve, poor fit]	–
Nc1ccc2c3c(cccc13)CC2	–	28.2 µM [falling, single point]
CCn1ncc(/C=N\NC(=O)c2ccc3c(c2)c(C)c(C)n3Cc2ccccc2)c1C	29.1 µM [rising, single point]	–
COCCCn1c(SCC(=O)NC2CCCC2)nnc1-c1ccco1	2.91 µM [falling, single point]	–
Cc1cccc(/C(N)=N/OC(=O)COc2ccccc2Cl)c1	2.31 µM [rising, partial curve, poor fit]	–
C(=N\N=C\c1ccccn1)/c1ccccn1	35.5 µM [rising, single point]	–
Cn1c(C(C#N)C(=O)Cc2cccc3ccccc23)nc2ccccc21 (stereo not drawn)	1 µM [falling, full curve, poor fit]	–
COCCCN=C1NN=C(c2cc(C)n(Cc3ccccc3Cl)c2C)CS1	4.47 µM [falling, partial curve, poor fit]	–
Cc1cc(O)ccc1N=Cc1c(C(F)(F)F)[nH][nH]c1=O	35.5 µM [falling, single point]	–
Cc1cc(C)n(-c2c(C)[nH]c3ccccc23)n1	35.5 µM [falling, single point]	–

SMILES	AC50 [1]	AC50 [2]
COc1ccccc1NC(=O)c1cccc2c(Br)cccc12	14.1 µM [rising, partial curve, poor fit]	–
CCOC(=O)c1sc(NC(=S)NC(=O)c2ccccc2Cl)c(C(=O)OCC)c1C	0.00461 µM [rising, full curve, poor fit]	–
CCCc1nc2ccccc2c(C(=O)OCc2nnc(-c3cc(OC)c(OC)c(OC)c3)o2)c1CC	29.1 µM [falling, single point]	–
O=C(Nc1ccccc1)Nc1ccc(-n2ccc(C(F)(F)F)n2)cc1	0.708 µM [rising, full curve, poor fit]	–
c1ccc(-c2csc(-c3cccnc3)n2)cc1	35.5 µM [rising, single point]	–
O=C(Nc1cccc(OC(=O)c2cccnc2)c1)c1cccnc1	12.6 µM [falling, partial curve, poor fit]	–
COc1cc(C(C[N+](=O)[O-])c2c(C)[nH]c3ccccc23)cc(OC)c1OC (stereo not drawn)	29.1 µM [falling, single point]	–
CCCCOCCCNC(=O)c1ccc(OC)cc1	6.51 µM [rising, single point]	–
CCN(CC)c1ccc(NS(=O)(=O)c2cn(C)c(=O)n(C)c2=O)c(C)c1	5.01 µM [falling, partial curve, poor fit]	–
CCOc1ccc2[nH]cc(C(=O)NCc3ccccc3)c(=O)c2c1	3.16 µM [falling, full curve]	–
COc1ccc(C(=O)/C(=C\c2ccco2)N2C=CC=CC2=C(C#N)C#N)cc1	35.5 µM [falling, single point]	–
O=C(CNC(c1ccccc1)c1ccccc1)Nc1ccccc1-c1ccccc1	25.9 µM [falling, single point]	–
O=C(O/N=C/c1ccc(Cl)cc1)C1CCCCC1	25.1 µM [rising, single point]	–
COc1ccccc1NC(=O)Nc1ccc2[nH]c(=O)[nH]c2c1	10 µM [falling, partial curve]	–
CCN(CC)c1ccc(/C=N/NC(=S)NC)c(O)c1	1.58 µM [rising, partial curve]	1.12 µM [falling, full curve]
COc1ccc(NC(=S)NC(=O)/C=C/c2ccco2)cc1	35.5 µM [rising, single point]	3.55 µM [falling, full curve]
COc1cccc(C2C(C(=O)c3cccs3)=C(O)C(=O)N2CCN2CCOCC2)c1OC (stereo not drawn)	22.4 µM [rising, single point]	–
CCOc1ccc(Br)cc1S(=O)(=O)NC(=O)c1ccccc1	–	12.6 µM [rising, partial curve, poor fit]
CC(C)OC(=O)CSc1nnc(-c2ccc(Cl)cc2Cl)n1N	20.6 µM [falling, partial curve, poor fit]	–
O=C(CSc1nc2ccc(Cl)cc2[nH]1)c1c[nH]c2ccccc12	35.5 µM [falling, partial curve, poor fit]	–
